Experimental data: patent US20200216493A1, “ANTIMICROBIAL PEPTIDES” (FERRING B.V., priority 2016, published 2020)
Some entries share one result that the patent states for a list of compounds.

Tested on: HepG2 (Human hepatocyte carcinoma)
Type: cell-based
Settings: HepG2 cells, 48 hours, MTT
Procedure: Compounds were tested for cytotoxicity to a mammalian cell line HepG2 (Human hepatocyte carcinoma from ECACC (85011430)). Hep G2 cells were seeded into 96-well plates, 7500 cells/well in 100 μl medium (Minimum Essential Medium (Gibco 21090) supplemented with 2 mM L-Glutamine, 1% non-essential amino acids and 10% fetal bovine serum) and incubated for 20 hours at 37° C., 5% CO2. 100 μL of fresh medium containing a test compound or DMSO (for control) at 2× final concentration were added and incubated for 48 hours at 37° C., 5% CO2. The final concentration of DMSO in plate was 1%. At the end of this incubation, 20 μl MTT (Thiazolyl Blue Tetrazolium Bromide) solution 5 mg/ml in H2O (0.5 mg/ml final in well) was added to all wells. Cells were incubated with MTT for 4 hours at 37° C., 5% CO2. After incubation, medium containing MTT was removed; 200 μl of DMSO was added in each well and plates were put on a shaker for 5 minutes. Absorbance was read on a SpectraMax plate reader at 570 nm. Specific absorbance (Specific A570) was calculated by subtracting the mean absorbance values of the blank wells (no HepG2 cells) from each well. Control values were determined from wells containing cells and treated with medium+1% DMSO only (no test compound). % viability was calculated as:
(Specific A570test compound/Specific A570control)×100.

Compound	Cell viability (% at 100 uM)
CC[C@H](C)[C@H](NC(=O)[C@@H](Cc1ccccc1)NC)C(=O)N[C@@H](CO)C(=O)N[C@H](CCC(N)=O)C(=O)N[C@@H](C(=O)N[C@H](C(=O)N[C@@H](CO)C(=O)N[C@H]1C(=O)N[C@@H](C)C(=O)N[C@@H](CCCCNC(=N)N)C(=O)N[C@@H]([C@@H](C)CC)C(=O)O[C@H]1C)[C@@H](C)CC)[C@@H](C)CC [Compound 5, H-D-MePhe-Ile-Ser-D-Gln-D-aIle-Ile-Ser-c(D-Thr-Ala-Har-Ile)]	less cytotoxicity than teixobactin
CC[C@H](C)[C@H](NC(=O)[C@@H](Cc1ccc(Cl)cc1)NC)C(=O)N[C@@H](CO)C(=O)N[C@H](CCC(N)=O)C(=O)N[C@@H](C(=O)N[C@H](C(=O)N[C@@H](CO)C(=O)N[C@H]1C(=O)N[C@@H](C)C(=O)N[C@@H](CCCCNC(=N)N)C(=O)N[C@@H]([C@@H](C)CC)C(=O)O[C@H]1C)[C@@H](C)CC)[C@@H](C)CC [Compound 70, H-D-MePhe(4-Cl)-Ile-Ser-D-Gln-D-aIle-Ile-Ser-c(D-Thr-Ala-Har-Ile)]	less cytotoxicity than teixobactin
CC[C@H](C)[C@H](NC(=O)[C@@H](Cc1ccccc1)NC)C(=O)N[C@@H](CO)C(=O)N[C@H](CCC(N)=O)C(=O)N[C@@H](C(=O)N[C@H](C(=O)N[C@@H](CO)C(=O)N[C@H]1C(=O)N[C@@H](C)C(=O)N[C@@H](CCCCNCc2ccccc2)C(=O)N[C@@H]([C@@H](C)CC)C(=O)O[C@H]1C)[C@@H](C)CC)[C@@H](C)CC [Compound 71, H-D-MePhe-Ile-Ser-D-Gln-D-aIle-Ile-Ser-c(D-Thr-Ala-Lys(Bn)-Ile)]	less cytotoxicity than teixobactin
CC[C@H](C)[C@H](NC(=O)[C@@H](Cc1ccccc1)NC)C(=O)N[C@@H](CO)C(=O)N[C@H](CCC(N)=O)C(=O)N[C@@H](C(=O)N[C@H](C(=O)N[C@@H](CO)C(=O)N[C@H]1C(=O)N[C@@H](C)C(=O)N[C@@H](Cc2ccc(NC(=N)N)cc2)C(=O)N[C@@H]([C@@H](C)CC)C(=O)O[C@H]1C)[C@@H](C)CC)[C@@H](C)CC [Compound 72, H-D-MePhe-Ile-Ser-D-Gln-D-aIle-Ile-Ser-c(D-Thr-Ala-Phe(4-guanidino)-Ile)]	less cytotoxicity than teixobactin
CC[C@H](C)[C@H](NC(=O)[C@@H](Cc1ccccc1)NC)C(=O)N[C@@H](Cc1cccc2ccccc12)C(=O)N[C@H](CCC(N)=O)C(=O)N[C@@H](C(=O)N[C@H](C(=O)N[C@@H](CO)C(=O)N[C@H]1C(=O)N[C@@H](C)C(=O)N[C@@H](CCCCNC(=N)N)C(=O)N[C@@H]([C@@H](C)CC)C(=O)O[C@H]1C)[C@@H](C)CC)[C@@H](C)CC [Compound 73, H-D-MePhe-Ile-lNal-D-Gln-D-aIle-Ile-Ser-c(D-Thr-Ala-Har-Ile)]	less cytotoxicity than teixobactin
CC[C@H](C)[C@H](NC(=O)[C@@H](Cc1ccc(OC)cc1)NC)C(=O)N[C@@H](CO)C(=O)N[C@H](CCC(N)=O)C(=O)N[C@@H](C(=O)N[C@H](C(=O)N[C@@H](CO)C(=O)N[C@H]1C(=O)N[C@@H](C)C(=O)N[C@@H](CCCCNC(=N)N)C(=O)N[C@@H]([C@@H](C)CC)C(=O)O[C@H]1C)[C@@H](C)CC)[C@@H](C)CC [Compound 74, H-D-MeTyr(Me)-Ile-Ser-D-Gln-D-aIle-Ile-Ser-c(D-Thr-Ala-Har-Ile)]	less cytotoxicity than teixobactin
CC[C@H](C)[C@H](NC(=O)[C@@H](Cc1ccc2ccccc2c1)NC)C(=O)N[C@@H](CO)C(=O)N[C@H](CCC(N)=O)C(=O)N[C@@H](C(=O)N[C@H](C(=O)N[C@@H](CO)C(=O)N[C@H]1C(=O)N[C@@H](C)C(=O)N[C@@H](CCCCNC(=N)N)C(=O)N[C@@H]([C@@H](C)CC)C(=O)O[C@H]1C)[C@@H](C)CC)[C@@H](C)CC [Compound 75, H-D-Me2Nal-Ile-Ser-D-Gln-D-aIle-Ile-Ser-c(D-Thr-Ala-Har-Ile)]	less cytotoxicity than teixobactin
